Laboratory results taken from the supplement of paper PMC12819154, “High-throughput peptide-centric local stability assay extends protein–ligand identification to membrane proteins, tissues and bacteria” (Nature Structural & Molecular Biology, 2025).
The list shows a part of the results, in another mix than the full data. Most entries show no effect beyond the scatter of the controls.

The chains behind the UniProt entries cited, without tags or fusion partners. Where a name states a change or a piece, a line headed by the entry shows the natural chain unless it says otherwise.
UniProt Q6BF16: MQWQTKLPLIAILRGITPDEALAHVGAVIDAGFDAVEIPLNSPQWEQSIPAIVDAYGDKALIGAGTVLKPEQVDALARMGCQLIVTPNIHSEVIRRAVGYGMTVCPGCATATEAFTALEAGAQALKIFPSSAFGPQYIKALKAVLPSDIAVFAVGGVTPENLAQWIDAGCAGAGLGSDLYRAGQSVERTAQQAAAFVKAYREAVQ
UniProt P77396: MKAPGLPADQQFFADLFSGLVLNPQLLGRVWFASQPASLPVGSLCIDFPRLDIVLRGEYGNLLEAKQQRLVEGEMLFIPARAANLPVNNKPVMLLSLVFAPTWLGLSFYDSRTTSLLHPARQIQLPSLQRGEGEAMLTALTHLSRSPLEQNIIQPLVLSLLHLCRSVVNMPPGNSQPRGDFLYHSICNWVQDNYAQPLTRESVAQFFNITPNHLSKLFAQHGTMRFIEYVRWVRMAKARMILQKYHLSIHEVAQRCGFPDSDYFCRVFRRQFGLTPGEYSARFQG
UniProt Q46812: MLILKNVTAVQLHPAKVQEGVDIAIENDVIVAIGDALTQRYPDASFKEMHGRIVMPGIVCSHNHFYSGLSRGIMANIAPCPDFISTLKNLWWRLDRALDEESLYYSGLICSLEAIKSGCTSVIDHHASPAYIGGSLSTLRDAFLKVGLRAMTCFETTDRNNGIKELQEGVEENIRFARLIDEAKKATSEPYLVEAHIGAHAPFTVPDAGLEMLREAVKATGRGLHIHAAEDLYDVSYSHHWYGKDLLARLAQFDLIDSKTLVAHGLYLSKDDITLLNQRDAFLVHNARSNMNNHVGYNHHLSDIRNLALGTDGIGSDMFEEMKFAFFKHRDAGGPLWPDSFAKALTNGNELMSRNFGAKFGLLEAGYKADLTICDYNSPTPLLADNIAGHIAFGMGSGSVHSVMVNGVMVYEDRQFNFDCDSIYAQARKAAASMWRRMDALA
UniProt P77700: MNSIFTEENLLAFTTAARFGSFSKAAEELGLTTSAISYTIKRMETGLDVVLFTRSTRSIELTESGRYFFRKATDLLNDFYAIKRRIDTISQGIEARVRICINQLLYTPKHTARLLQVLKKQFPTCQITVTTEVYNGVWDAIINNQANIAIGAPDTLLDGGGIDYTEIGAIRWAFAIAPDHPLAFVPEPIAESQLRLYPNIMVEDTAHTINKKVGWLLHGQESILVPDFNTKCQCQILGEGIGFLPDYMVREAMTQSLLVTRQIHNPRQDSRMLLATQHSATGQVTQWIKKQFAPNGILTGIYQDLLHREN
UniProt Q46865: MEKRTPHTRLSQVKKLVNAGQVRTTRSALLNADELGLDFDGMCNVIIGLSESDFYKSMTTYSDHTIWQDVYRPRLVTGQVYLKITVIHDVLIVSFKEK
UniProt P77260: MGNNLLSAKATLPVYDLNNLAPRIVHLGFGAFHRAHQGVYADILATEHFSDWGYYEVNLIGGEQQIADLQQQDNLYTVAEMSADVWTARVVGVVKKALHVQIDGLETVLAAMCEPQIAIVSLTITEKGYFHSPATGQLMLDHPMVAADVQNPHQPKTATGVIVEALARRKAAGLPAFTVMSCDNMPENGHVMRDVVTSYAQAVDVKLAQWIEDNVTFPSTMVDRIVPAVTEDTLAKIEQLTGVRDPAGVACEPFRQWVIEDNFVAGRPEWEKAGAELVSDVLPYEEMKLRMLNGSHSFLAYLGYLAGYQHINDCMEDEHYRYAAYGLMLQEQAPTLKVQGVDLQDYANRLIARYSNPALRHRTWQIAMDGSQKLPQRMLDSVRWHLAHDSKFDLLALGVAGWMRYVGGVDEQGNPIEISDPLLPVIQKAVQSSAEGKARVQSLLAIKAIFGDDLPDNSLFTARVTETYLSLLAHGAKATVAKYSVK
UniProt P77330: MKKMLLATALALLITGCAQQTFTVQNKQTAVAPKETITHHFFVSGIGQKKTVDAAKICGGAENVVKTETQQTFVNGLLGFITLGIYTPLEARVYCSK
UniProt Q46888: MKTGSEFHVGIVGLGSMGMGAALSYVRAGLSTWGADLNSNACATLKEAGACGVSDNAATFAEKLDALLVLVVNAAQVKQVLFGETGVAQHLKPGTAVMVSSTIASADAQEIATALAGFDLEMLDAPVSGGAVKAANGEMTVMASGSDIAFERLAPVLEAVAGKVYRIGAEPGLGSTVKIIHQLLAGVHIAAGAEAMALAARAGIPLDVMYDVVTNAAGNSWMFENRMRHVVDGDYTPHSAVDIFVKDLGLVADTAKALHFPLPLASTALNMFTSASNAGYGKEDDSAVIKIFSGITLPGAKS
UniProt P77526: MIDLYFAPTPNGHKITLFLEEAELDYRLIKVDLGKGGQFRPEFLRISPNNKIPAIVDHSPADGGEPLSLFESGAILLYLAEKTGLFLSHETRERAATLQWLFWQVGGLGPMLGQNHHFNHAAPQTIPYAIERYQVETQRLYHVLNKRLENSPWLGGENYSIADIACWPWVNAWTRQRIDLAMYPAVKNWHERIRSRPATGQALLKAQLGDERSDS
UniProt Q46896: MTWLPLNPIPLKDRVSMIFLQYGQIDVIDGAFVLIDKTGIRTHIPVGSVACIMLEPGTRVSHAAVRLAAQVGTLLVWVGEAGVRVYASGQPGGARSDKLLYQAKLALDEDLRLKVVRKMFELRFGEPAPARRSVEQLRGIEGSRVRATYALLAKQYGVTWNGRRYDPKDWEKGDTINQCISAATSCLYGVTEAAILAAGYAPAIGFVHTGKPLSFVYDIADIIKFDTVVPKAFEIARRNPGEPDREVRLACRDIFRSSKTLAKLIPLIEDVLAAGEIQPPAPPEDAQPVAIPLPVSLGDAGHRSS
UniProt P77781: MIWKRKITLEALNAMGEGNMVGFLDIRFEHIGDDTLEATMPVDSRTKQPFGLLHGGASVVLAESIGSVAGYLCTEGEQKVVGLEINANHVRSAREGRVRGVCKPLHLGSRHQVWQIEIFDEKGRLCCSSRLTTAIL
UniProt P77319: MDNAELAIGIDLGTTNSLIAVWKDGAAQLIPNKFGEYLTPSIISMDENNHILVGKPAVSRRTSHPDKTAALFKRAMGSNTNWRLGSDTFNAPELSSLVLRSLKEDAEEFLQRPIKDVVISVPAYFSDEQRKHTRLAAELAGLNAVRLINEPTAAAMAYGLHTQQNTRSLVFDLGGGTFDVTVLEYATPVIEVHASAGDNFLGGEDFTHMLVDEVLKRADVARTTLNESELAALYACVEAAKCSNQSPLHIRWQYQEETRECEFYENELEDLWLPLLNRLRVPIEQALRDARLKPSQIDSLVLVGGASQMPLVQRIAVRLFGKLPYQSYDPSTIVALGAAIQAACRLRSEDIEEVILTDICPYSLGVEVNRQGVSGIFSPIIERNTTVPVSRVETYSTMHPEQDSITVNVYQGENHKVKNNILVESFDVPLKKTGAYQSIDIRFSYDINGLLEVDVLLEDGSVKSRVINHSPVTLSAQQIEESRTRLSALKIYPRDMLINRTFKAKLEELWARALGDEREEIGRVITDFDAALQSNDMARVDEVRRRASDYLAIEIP
UniProt P77375: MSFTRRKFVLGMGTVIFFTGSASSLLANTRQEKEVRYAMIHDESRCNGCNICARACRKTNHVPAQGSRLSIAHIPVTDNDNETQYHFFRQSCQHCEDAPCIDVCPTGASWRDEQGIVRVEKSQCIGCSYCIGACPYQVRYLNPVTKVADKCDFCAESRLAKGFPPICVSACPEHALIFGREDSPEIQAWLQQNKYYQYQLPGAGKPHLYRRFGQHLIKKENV
UniProt Q46799: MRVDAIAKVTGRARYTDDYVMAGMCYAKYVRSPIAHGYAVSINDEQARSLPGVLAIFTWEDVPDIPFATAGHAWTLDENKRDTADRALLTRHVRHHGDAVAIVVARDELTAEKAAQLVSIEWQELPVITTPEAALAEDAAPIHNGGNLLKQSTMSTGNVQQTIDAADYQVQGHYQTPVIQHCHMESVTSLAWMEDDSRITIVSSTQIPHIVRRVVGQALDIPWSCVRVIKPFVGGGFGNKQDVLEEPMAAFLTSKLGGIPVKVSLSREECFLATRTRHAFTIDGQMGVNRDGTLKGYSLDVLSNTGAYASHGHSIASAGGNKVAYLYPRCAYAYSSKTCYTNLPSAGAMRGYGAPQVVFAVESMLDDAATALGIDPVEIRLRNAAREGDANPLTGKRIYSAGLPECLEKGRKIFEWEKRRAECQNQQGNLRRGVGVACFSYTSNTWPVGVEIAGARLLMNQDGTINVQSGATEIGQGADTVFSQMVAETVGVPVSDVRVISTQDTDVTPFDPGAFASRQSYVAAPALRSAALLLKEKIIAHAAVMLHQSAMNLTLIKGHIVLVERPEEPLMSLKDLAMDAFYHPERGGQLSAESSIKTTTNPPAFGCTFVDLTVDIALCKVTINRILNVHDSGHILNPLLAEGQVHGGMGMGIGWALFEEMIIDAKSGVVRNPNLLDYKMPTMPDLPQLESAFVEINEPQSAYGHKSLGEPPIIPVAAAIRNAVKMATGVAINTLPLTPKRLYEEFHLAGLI
UniProt P77634: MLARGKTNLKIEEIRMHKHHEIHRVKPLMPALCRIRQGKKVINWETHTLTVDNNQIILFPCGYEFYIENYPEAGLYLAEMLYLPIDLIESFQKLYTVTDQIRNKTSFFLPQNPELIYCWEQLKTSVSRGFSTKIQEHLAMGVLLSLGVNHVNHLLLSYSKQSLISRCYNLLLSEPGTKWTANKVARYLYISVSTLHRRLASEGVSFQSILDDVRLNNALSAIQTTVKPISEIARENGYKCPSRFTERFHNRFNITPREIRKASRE
UniProt Q46835: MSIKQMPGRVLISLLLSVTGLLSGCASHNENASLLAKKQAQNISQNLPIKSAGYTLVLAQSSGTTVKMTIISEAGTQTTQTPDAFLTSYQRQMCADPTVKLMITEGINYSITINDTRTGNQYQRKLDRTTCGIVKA
UniProt P77622: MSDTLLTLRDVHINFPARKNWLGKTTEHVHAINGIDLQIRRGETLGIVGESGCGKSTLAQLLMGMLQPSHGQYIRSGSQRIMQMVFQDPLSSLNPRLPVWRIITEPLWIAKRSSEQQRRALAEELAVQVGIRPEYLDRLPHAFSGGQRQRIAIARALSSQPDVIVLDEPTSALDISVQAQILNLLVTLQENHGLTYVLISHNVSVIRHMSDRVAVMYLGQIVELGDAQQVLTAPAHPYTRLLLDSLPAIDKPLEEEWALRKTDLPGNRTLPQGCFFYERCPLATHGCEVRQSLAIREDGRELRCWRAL
UniProt P77295: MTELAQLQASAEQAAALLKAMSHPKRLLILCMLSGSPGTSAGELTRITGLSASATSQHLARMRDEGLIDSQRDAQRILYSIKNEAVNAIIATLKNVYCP
UniProt P77529: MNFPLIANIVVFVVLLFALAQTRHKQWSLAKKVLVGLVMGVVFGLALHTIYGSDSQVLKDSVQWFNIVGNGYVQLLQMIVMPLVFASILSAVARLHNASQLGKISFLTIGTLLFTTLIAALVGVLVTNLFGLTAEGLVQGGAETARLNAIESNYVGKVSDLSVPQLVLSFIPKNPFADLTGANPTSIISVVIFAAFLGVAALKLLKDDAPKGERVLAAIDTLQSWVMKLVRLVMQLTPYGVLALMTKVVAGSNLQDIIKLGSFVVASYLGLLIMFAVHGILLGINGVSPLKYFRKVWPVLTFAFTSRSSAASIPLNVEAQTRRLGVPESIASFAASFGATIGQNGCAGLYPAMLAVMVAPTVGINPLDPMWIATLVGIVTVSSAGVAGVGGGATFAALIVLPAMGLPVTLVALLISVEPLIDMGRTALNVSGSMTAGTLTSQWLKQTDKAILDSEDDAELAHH
UniProt P77690: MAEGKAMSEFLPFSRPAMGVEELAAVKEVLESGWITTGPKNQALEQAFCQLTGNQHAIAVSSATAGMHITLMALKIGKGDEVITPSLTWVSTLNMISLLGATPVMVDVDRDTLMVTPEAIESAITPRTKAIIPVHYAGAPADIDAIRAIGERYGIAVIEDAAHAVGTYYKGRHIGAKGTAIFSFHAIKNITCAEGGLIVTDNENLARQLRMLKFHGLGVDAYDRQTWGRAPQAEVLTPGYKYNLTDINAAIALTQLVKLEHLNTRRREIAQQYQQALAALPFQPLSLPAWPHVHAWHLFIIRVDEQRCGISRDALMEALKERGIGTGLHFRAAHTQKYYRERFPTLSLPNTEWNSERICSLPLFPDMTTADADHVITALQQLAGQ
UniProt Q46845: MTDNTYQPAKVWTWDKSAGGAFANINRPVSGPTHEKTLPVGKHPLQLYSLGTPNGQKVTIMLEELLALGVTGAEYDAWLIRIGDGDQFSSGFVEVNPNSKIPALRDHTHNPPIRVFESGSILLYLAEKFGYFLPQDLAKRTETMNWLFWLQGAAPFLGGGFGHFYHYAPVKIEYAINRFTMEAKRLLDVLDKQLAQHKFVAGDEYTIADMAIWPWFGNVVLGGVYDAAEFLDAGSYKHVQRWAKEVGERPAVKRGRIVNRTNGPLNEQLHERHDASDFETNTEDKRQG
UniProt Q46810: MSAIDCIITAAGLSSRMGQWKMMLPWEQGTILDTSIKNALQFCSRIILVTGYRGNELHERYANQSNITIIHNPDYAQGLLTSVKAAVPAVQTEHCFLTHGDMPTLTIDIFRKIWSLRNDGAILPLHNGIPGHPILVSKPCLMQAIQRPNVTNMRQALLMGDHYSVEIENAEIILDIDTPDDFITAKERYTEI

The targets below were run with Nc1ncnc2c1ncn2[C@@H]1O[C@H](COP(=O)(O)OP(=O)(O)OP(=O)(O)O)[C@@H](O)[C@H]1O [adenosine 5'-triphosphate] (assay: log2 fold change of tryptic peptide abundance, ligand vs vehicle (limited proteolysis) (log2 ratio); higher = more trypsin-susceptible (destabilized)). Conditions: ligand concentration: 5 mM; sample: E. coli desalted lysate; replicate design: treated before aliquoting.
Protocol: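 HT-PELSA: desalted E. coli K-12 BW25113 lysate (with 12 mM MgCl2) incubated with 5 mM ATP (pH 7) or water for 30 min at 25 C, then a 4 min trypsin pulse at 22 C. Peptides were quantified by DIA-MS (4 replicates). Value is the peptide log2 fold change (treated/control); negative = stabilized. Scale: negative = ligand-stabilized region.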
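Also: lysate desalted by size exclusion to strip endogenous ATP, peptide intensities built from DIA-NN precursor signals, and peptides missing any value discarded before comparison.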

| Target | log2 fold change |
| --- | --- |
| UniProt Q6BF16 (peptide sequence: ALIGAGTVLKPEQVDALAR, peptide start residue: 60) | -0.337 |
| UniProt Q46814 (peptide sequence: PCYVEDR, peptide start residue: 189) | -0.72 |
| UniProt P77348 (peptide sequence: VLAQASTENTVK, peptide start residue: 469) | 0.198 |
| UniProt P77396 (peptide sequence: YHLSIHEVAQR, peptide start residue: 245) | 0.51 |
| UniProt Q46811 (peptide sequence: WHKPAGSGSR, peptide start residue: 541) | 0.435 |
| UniProt Q46812 (peptide sequence: NVTAVQLHPAK, peptide start residue: 6) | -0.277 |
| UniProt P77700 (peptide sequence: IDTISQGIEAR, peptide start residue: 86) | -0.362 |
| UniProt Q46865 (peptide sequence: KLVNAGQVR, peptide start residue: 15) | 0.184 |
| UniProt P77260 (peptide sequence: TATGVIVEALAR, peptide start residue: 157) | -0.67 |
| UniProt P77330 (peptide sequence: ICGGAENVVK, peptide start residue: 57) | 0.422 |
| UniProt Q46888 (peptide sequence: DLGLVADTAK, peptide start residue: 247) | -0.525 |
| UniProt P77526 (peptide sequence: SRPATGQALLK, peptide start residue: 195) | 1.1 |
| UniProt P77379 (peptide sequence: LSHVDNESTCIVCGTLR, peptide start residue: 77) | -0.33 |
| UniProt Q46896 (peptide sequence: LALDEDLR, peptide start residue: 105) | -0.321 |
| UniProt Q46948 (peptide sequence: DSTLLVETVK, peptide start residue: 84) | -0.416 |
| UniProt P77409 (peptide sequence: SMVDGYHRH, peptide start residue: 253) | -0.566 |
| UniProt P77781 (peptide sequence: FEHIGDDTLEATMPVDSR, peptide start residue: 28) | -0.356 |
| UniProt P77319 (peptide sequence: LAAELAGLNAVR, peptide start residue: 135) | -0.47 |
| UniProt P77744 (peptide sequence: SLMPAVISR, peptide start residue: 108) | -0.568 |
| UniProt P77375 (peptide sequence: CDFCAESR, peptide start residue: 151) | -0.331 |

| Target | log2 fold change |
| --- | --- |
| UniProt P77712 (peptide sequence: ALALEGELR, peptide start residue: 116) | 0.592 |
| UniProt Q46904 (peptide sequence: VPASELLTR, peptide start residue: 243) | -0.232 |
| UniProt P77445 (peptide sequence: LEGGCHHTAAMHSR, peptide start residue: 386) | 0.564 |
| UniProt P77554 (peptide sequence: SLNRPAGTTIQDMIK, peptide start residue: 135) | 0.367 |
| UniProt P77806 (peptide sequence: AVAVSSFGK, peptide start residue: 228) | -0.263 |
| UniProt Q46799 (peptide sequence: CAYAYSSK, peptide start residue: 330) | -0.458 |
| UniProt Q57083 (peptide sequence: EGEILLEHIQR, peptide start residue: 66) | -0.348 |
| UniProt P77634 (peptide sequence: ENGYKCPSR, peptide start residue: 235) | -0.56 |
| UniProt Q46835 (peptide sequence: QAQNISQNLPIK, peptide start residue: 39) | -0.18 |
| UniProt P77622 (peptide sequence: KTDLPGNR, peptide start residue: 261) | -0.252 |
| UniProt P77295 (peptide sequence: MRDEGLIDSQR, peptide start residue: 62) | 0.223 |
| UniProt P77280 (peptide sequence: QAPYLVMR, peptide start residue: 253) | -0.435 |
| UniProt P77338 (peptide sequence: RLTLTEK, peptide start residue: 261) | 0.276 |
| UniProt P77529 (peptide sequence: SSAASIPLNVEAQTRR, peptide start residue: 308) | -0.364 |
| UniProt Q46939 (peptide sequence: MLEWDER, peptide start residue: 329) | -0.212 |
| UniProt P77690 (peptide sequence: LEHLNTR, peptide start residue: 259) | -0.316 |
| UniProt V9HVX0 (peptide sequence: LEGLHEQAIK, peptide start residue: 21) | -0.428 |
| UniProt Q47710 (peptide sequence: TTLKQQQLRG, peptide start residue: 90) | -0.0751 |
| UniProt Q46845 (peptide sequence: EVGERPAVK, peptide start residue: 245) | 0.639 |
| UniProt Q46810 (peptide sequence: IILVTGYRGNELHER, peptide start residue: 46) | -0.459 |

Pulled one by one from the list above (2):

| Target | log2 fold change |
| --- | --- |
| UniProt P77634 (peptide sequence: ENGYKCPSR, peptide start residue: 235) | -0.56 |
| UniProt P77622 (peptide sequence: KTDLPGNR, peptide start residue: 261) | -0.252 |
